According to patent WO2011161189A1:
These are yes or no findings as the source states them, for the method shown. Some entries that bind do so weakly or less than the wild type.

The chains behind the UniProt entries cited, without tags or fusion partners. Where a name states a change or a piece, a line headed by the entry shows the natural chain unless it says otherwise. A line that says so, or that is headed by a name, gives the form on record, which may keep a tag or linker.
human hepsin (recombinant EE-tagged, amino acids 45-417, enzymatically active two-chain form) (P05981, form named): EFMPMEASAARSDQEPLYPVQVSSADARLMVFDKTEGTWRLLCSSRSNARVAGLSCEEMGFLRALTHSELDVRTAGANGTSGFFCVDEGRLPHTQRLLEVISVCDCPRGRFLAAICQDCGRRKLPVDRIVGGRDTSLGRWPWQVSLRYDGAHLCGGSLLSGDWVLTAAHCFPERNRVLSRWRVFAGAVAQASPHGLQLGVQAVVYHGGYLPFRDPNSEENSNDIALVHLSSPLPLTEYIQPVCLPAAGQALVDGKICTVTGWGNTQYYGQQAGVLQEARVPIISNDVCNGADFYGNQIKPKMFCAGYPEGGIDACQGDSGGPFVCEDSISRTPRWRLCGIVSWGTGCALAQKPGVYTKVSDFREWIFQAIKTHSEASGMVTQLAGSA

What was measured:
[1] = target: human hepsin (recombinant EE-tagged, amino acids 45-417, enzymatically active two-chain form) (human) (UniProt P05981); test: SPR, antibody immobilised on CM5 chip, 50 nM hepsin added
[2] = target: human hepsin (recombinant EE-tagged, amino acids 45-417, enzymatically active two-chain form) (human) (UniProt P05981); test: SPR, 50 nM 2.3.35 injected on hepsin held by immobilised 2.7.35 or 2.14.5
[3] = target: human hepsin (recombinant EE-tagged, amino acids 45-417, enzymatically active two-chain form) (human) (UniProt P05981); test: complex formation, checked by size exclusion chromatography and SDS-PAGE; crystallised
[4] = target: human hepsin (recombinant EE-tagged, amino acids 45-417, enzymatically active two-chain form) (human) (UniProt P05981); test: SPR, antibody captured on Protein A, hepsin 0-200 nM injected, 37 C
[5] = target: human hepsin (recombinant EE-tagged, amino acids 45-417, enzymatically active two-chain form) (human) (UniProt P05981); test: SPR, antibody captured on Protein G, hepsin 0-200 nM injected, 37 C
[6] = target: human hepsin (recombinant EE-tagged, amino acids 45-417, enzymatically active two-chain form) (human) (UniProt P05981); test: SPR, 50 nM 2.7.35 injected on hepsin held by immobilised 2.3.35 or 2.14.5

binding [1]	binding [4]	Binder	further results
binds		Mab 2.3.35 (antibody, V domains shown) VH: QVQLQQSGPELVKPGASVKVSCKASGYTFTDFVINWVKQRTGQGLEWIGEIYPRSNSIYSNEKFKGKATLTTDKSSNTAYMQVSSLTSEDSAVYFCARGSGDYAMDYWGQGTSVTVSS VL: ENVLTQSPAIMSASPGEKVTMTCSASSSVTYMHWYQQKSSTSPKLWIYDTSKLASGVPGRFSGSGSGNSYSLTIRSMEAEDVATYFCFQGSGFPLTFGGGTKLEIK	binding [2]: binds
		Mab55-Fab fragment (Fab, V domains shown) VH: QVQLVQSGSELKKPGASVKVSCKASGYTFTDYSMRWVRQAPGQGLEWMGWINTETGSPTYADDFKGRFVFSLDTSVSTAYLQISSLKAEDTAVYYCARGFAYWGQGTLVTVSS VL: QTVVTQEPSLTVSPGGTVTLTCRSSTGAVTTSNYANWVQQKPGQAFRGLIGDTNNRAPWTPARFSGSLLGGKAALTLSGVQPEDEAEYYCALWYSNHFIFGSGTKVTVL	binding [3]: binds
	binds	Mab55 (antibody, V domains shown) VH: QVQLVQSGSELKKPGASVKVSCKASGYTFTDYSMRWVRQAPGQGLEWMGWINTETGSPTYADDFKGRFVFSLDTSVSTAYLQISSLKAEDTAVYYCARGFAYWGQGTLVTVSS VL: QTVVTQEPSLTVSPGGTVTLTCRSSTGAVTTSNYANWVQQKPGQAFRGLIGDTNNRAPWTPARFSGSLLGGKAALTLSGVQPEDEAEYYCALWYSNHFIFGSGTKVTVL	
binds		Mab 2.7.35 (antibody, V domains shown) VH: QIQLVQSGPELKKPGETVKISCKASGYTFTDYSMRWVKQAPGKGLKWMGWINTETGNPTYADDFKGRFAFSLETSASTAYLQINNLKNEDTARYFCARGFAYWGQGTLVTVSA VL: QAVVTQESALTTSPGETVTLTCRSSTGAVTTSNYANWVQEKPDHLFTGLIGDTNNRAPGVPARFSGSLIGDKAALTITGAQTEDEAIYFCALWYSNHFIFGSGTKVTVL	binding [5]: binds; binding [6]: binds
	binds	chimeric Mab 2.7.35 (antibody, V domains shown) VH: QIQLVQSGPELKKPGETVKISCKASGYTFTDYSMRWVKQAPGKGLKWMGWINTETGNPTYADDFKGRFAFSLETSASTAYLQINNLKNEDTARYFCARGFAYWGQGTLVTVSA VL: QAVVTQESALTTSPGETVTLTCRSSTGAVTTSNYANWVQEKPDHLFTGLIGDTNNRAPGVPARFSGSLIGDKAALTITGAQTEDEAIYFCALWYSNHFIFGSGTKVTVL	
